Assay [1] has as its target T1, Flag-menin (in LX2 cells) (UniProt O00255).
T1 sequence: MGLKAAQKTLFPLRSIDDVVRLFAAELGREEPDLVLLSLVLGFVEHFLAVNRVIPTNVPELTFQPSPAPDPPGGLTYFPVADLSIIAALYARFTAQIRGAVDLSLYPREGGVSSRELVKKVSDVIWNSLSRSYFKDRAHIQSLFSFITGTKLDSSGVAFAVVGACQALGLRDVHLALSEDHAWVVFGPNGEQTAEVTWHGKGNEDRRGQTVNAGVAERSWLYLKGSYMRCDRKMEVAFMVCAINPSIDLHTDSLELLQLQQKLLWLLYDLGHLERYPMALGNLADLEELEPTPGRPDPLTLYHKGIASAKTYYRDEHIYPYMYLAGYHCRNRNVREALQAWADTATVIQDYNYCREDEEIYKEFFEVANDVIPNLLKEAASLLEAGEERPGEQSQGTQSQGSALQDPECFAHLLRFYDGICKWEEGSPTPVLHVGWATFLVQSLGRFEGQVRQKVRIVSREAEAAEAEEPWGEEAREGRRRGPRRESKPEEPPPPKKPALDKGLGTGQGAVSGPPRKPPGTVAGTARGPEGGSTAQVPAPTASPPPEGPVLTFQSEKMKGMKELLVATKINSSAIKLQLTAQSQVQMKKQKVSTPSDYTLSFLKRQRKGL
Put plainly: co-IP; anti-Flag magnetic beads; LX2 cells transfected with Flag-menin and treated with TGF-β (10 ng/ml) for 48 h; blot for Flag, SETD2, PPARγ.

Amino acid sequences for entries named in this document (tags omitted).
UniProt Q9BYW2: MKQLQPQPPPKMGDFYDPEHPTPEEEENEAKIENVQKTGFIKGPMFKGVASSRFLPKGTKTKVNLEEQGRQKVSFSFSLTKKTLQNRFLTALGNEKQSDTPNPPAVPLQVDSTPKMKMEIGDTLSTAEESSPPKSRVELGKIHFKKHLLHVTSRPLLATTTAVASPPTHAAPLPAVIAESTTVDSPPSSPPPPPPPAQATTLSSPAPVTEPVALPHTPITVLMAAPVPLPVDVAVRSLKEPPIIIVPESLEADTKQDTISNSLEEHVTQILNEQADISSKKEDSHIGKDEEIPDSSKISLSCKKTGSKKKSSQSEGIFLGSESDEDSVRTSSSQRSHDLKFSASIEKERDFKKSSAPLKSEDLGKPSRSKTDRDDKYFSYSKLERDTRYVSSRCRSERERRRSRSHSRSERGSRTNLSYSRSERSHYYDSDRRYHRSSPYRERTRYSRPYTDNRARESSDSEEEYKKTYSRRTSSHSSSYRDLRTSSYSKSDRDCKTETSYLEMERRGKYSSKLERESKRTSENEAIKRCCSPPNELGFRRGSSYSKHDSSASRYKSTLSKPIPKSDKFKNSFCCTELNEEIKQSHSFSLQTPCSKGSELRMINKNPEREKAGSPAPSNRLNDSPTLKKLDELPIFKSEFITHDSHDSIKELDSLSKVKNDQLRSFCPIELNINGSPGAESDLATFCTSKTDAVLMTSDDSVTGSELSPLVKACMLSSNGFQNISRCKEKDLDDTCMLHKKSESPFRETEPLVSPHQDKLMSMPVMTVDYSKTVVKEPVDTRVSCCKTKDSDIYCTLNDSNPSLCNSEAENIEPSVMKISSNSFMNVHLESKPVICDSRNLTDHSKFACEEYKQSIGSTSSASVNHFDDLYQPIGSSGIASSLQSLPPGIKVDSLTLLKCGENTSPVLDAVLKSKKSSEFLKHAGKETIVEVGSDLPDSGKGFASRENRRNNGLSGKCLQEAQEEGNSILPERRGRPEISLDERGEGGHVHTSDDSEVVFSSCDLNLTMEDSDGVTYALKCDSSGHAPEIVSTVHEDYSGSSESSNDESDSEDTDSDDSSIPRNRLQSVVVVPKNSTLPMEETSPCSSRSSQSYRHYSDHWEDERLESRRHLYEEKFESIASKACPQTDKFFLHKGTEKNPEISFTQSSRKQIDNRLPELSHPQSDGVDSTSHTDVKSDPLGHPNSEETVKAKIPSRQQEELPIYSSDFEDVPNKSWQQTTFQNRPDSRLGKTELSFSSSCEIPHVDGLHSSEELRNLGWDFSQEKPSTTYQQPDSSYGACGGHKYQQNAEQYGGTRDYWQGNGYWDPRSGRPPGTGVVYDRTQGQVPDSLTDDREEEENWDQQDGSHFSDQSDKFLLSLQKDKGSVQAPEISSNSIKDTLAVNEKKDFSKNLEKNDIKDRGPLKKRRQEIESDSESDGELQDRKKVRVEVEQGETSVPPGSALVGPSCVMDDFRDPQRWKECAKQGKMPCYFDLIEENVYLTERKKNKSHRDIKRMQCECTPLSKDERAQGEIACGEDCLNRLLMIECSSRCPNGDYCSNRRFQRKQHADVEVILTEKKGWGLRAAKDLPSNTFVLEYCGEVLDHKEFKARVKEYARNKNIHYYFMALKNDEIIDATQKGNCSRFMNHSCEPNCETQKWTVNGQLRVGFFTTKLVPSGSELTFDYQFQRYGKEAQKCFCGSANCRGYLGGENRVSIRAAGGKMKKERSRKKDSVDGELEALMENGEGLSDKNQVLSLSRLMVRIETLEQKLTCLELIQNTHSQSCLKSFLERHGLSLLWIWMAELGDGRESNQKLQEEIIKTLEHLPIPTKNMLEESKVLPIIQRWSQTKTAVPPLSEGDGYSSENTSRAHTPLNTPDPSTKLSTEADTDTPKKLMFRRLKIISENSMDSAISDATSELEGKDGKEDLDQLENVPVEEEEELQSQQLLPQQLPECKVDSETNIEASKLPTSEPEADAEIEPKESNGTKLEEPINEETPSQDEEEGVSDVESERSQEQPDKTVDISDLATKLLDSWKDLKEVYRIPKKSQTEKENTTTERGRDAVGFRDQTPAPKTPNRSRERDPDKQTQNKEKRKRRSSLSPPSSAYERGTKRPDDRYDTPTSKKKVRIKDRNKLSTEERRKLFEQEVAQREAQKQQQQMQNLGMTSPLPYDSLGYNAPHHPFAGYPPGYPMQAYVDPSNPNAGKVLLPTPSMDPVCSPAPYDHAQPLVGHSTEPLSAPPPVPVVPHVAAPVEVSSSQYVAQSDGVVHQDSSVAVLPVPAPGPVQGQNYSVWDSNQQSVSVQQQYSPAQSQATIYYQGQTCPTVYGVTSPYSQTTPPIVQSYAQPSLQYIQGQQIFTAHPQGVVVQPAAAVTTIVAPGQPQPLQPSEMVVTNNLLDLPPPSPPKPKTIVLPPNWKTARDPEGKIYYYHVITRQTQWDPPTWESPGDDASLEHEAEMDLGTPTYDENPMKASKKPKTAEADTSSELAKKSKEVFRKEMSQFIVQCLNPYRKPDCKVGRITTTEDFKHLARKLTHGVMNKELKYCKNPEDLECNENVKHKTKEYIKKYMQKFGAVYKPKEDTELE
UniProt P37231: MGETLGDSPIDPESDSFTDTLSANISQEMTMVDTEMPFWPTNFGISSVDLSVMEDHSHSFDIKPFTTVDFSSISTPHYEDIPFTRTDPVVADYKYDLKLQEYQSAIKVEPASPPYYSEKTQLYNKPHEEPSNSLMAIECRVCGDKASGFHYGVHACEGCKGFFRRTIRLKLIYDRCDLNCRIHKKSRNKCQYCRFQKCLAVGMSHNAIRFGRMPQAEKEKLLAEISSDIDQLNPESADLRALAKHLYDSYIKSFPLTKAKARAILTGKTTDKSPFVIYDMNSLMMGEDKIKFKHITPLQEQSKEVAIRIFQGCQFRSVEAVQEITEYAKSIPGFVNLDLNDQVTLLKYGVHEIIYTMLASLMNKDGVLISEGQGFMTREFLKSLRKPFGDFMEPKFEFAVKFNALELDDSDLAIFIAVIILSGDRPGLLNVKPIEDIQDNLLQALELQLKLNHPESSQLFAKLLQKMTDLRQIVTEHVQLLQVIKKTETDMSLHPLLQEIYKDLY

The target of assay [2] is Flag-SETD2 (in LX2 cells) (UniProt Q9BYW2). Put plainly: co-IP; anti-Flag magnetic beads; LX2 cells transfected with Flag-PPARγ, Flag-SETD2 or Flag-menin, basal conditions; blot for menin, SETD2, PPARγ, Flag.
Assay [3] addresses T1, Flag-menin (in LX2 cells). The assay is described as above.
The target in assay [4] is Flag-PPARγ (in LX2 cells) (UniProt P37231). The description is as above.

These are yes or no findings as the source states them, for the method shown. In cells and extracts the contact can be indirect. Some entries that bind do so weakly or less than the wild type. For some assays here: Sequences can lack the tags named with a protein.

Take “PPARγ (endogenous in LX2 cells) (from UniProt P37231 1-505)”: the binding entry in assay [1] was “no binding (condition: TGF-β (10 ng/ml) for 48 h)”; in assay [2] it was “binds”; in assay [3], “binds”.

B1: menin (endogenous in LX2 cells) (protein, UniProt O00255 1-610)
chain: T1 sequence
For B1, the binding result in assay [4] and in assay [2] was “binds” in each case.

The values above are taken from article PMC12346064.
